# Results published in the supplement of paper PMC8728848.
# Some of the results follow.
# B1: EfCBM33A (Enterococcus faecalis), Q838S1 (protein)
# chain: MKKSLLTIVLAFSFVLGGAALAPTVSEAHGYVASPGSRAFFGSSAGGNLNTNVGRAQWEPQSIEAPKNTFITGKLASAGVSGFEPLDEQTATRWHKTNITTGPLDITWNLTAQHRTASWDYYITKNGWNPNQPLDIKNFDKIASIDGKQEVPNKVVKQTINIPTDRKGYHVIYAVWGIGDTVNAFYQAIDVNIQ
# How the values were obtained:
# Assay in all cases: glycan array binding signal (z-score within array); higher = stronger binding
# Conditions in all cases: glycan notation: IUPAC condensed, linker removed
# [1] = biological target: Fuc(a1-2)Gal
# Summary of the method: (§1)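 Glycan array data came from 3228 arrays in the Consortium for Functional Glycomics database, and only arrays with an available protein sequence were kept. Glycan names were put into IUPAC-condensed notation, and columns mapping to the same glycan were averaged. The binding signal is a within-array Z-score, averaged across arrays of one protein sequence run at different concentrations or buffers and across linkers. A negative Z-score can be read as non-binding.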
# [2] = biological target: Fuc(a1-2)Gal(b1-3)GalNAc
# Summary of the method: as §1
# [3] = biological target: Fuc(a1-2)Gal(b1-3)GalNAc(a1-3)[Fuc(a1-2)]Gal(b1-4)Glc
# Summary of the method: as §1
# [4] = biological target: Fuc(a1-2)Gal(b1-3)GalNAc(a1-3)[Fuc(a1-2)]Gal(b1-4)GlcNAc
# Summary of the method: as §1
# [5] = biological target: Fuc(a1-2)Gal(b1-3)GalNAc(b1-3)Gal
# Summary of the method: as §1
# [6] = biological target: Fuc(a1-2)Gal(b1-3)GalNAc(b1-3)Gal(a1-4)Gal(b1-4)Glc
# Summary of the method: as §1
# [7] = biological target: Fuc(a1-2)Gal(b1-3)GalNAc(b1-4)[Neu5Ac(a2-3)]Gal(b1-4)Glc
# Summary of the method: as §1
# [8] = biological target: Fuc(a1-2)Gal(b1-3)GlcNAc
# Summary of the method: as §1
# [9] = biological target: Fuc(a1-2)Gal(b1-3)GlcNAc(b1-2)Man(a1-3)[Fuc(a1-2)Gal(b1-3)GlcNAc(b1-2)Man(a1-6)]Man(b1-4)GlcNAc(b1-4)GlcNAc
# Summary of the method: as §1
# [10] = biological target: Fuc(a1-2)Gal(b1-3)GlcNAc(b1-2)Man(a1-3)[Fuc(a1-2)Gal(b1-3)GlcNAc(b1-2)Man(a1-6)]Man(b1-4)GlcNAc(b1-4)[Fuc(a1-6)]GlcNAc
# Summary of the method: as §1
# [11] = biological target: Fuc(a1-2)Gal(b1-3)GlcNAc(b1-3)Gal(b1-4)Glc
# Summary of the method: as §1
# [12] = biological target: Fuc(a1-2)Gal(b1-3)GlcNAc(b1-3)GalNAc
# Summary of the method: as §1
# [13] = biological target: Fuc(a1-2)Gal(b1-3)GlcNAc(b1-3)[Fuc(a1-2)Gal(b1-3)GlcNAc(b1-6)]GalNAc
# Summary of the method: as §1
# [14] = biological target: Fuc(a1-2)Gal(b1-3)GlcNAc(b1-3)[Gal(b1-4)GlcNAc(b1-6)]Gal(b1-4)Glc
# Summary of the method: as §1
# [15] = biological target: Fuc(a1-2)Gal(b1-3)GlcNAc(b1-3)[Neu5Ac(a2-6)Gal(b1-4)GlcNAc(b1-6)]Gal(b1-4)Glc
# Summary of the method: as §1
# [16] = biological target: Fuc(a1-2)Gal(b1-3)GlcNAc6S
# Summary of the method: as §1
# [17] = biological target: Fuc(a1-2)Gal(b1-3)[Fuc(a1-4)]GlcNAc
# Summary of the method: as §1
# [18] = biological target: Fuc(a1-2)Gal(b1-3)[Fuc(a1-4)]GlcNAc(b1-2)Man(a1-3)[Fuc(a1-2)Gal(b1-3)[Fuc(a1-4)]GlcNAc(b1-2)Man(a1-3)]Man(b1-4)GlcNAc(b1-4)GlcNAc
# Summary of the method: as §1
# [19] = biological target: Fuc(a1-2)Gal(b1-3)[Fuc(a1-4)]GlcNAc(b1-2)Man(a1-3)[Fuc(a1-2)Gal(b1-3)[Fuc(a1-4)]GlcNAc(b1-2)Man(a1-6)]Man(b1-4)GlcNAc(b1-4)[Fuc(a1-6)]GlcNAc(b1-4)[Fuc(a1-6)]GlcNAc
# Summary of the method: as §1
# [20] = biological target: Fuc(a1-2)Gal(b1-3)[Fuc(a1-4)]GlcNAc(b1-3)[Fuc(a1-3)[Gal(b1-4)]GlcNAc(b1-6)]Gal(b1-4)Glc
# Summary of the method: as §1
# [21] = biological target: Fuc(a1-2)Gal(b1-3)[Fuc(a1-4)]GlcNAc(b1-3)[Gal(b1-4)GlcNAc(b1-6)]Gal(b1-4)Glc
# Summary of the method: as §1
# [22] = biological target: Fuc(a1-2)Gal(b1-4)Fuc(a1-3)]GlcNAc(b1-2)Man(a1-3)[Fuc(a1-2)Gal(b1-4)[Fuc(a1-3)]GlcNAc(b1-2)Man(a1-6)]Man(b1-4)GlcNAc(b1-4)GlcNAc
# Summary of the method: as §1
binder,measurement,setting,value
B1,glycan array binding signal (z-score),[1],1.11
same,glycan array binding signal (z-score),[2],-0.633
same,glycan array binding signal (z-score),[3],-0.182
same,glycan array binding signal (z-score),[4],-0.436
same,glycan array binding signal (z-score),[5],-0.384
same,glycan array binding signal (z-score),[6],0.026
same,glycan array binding signal (z-score),[7],-0.51
same,glycan array binding signal (z-score),[8],-0.353
same,glycan array binding signal (z-score),[9],0.104
same,glycan array binding signal (z-score),[10],1.69
same,glycan array binding signal (z-score),[11],-1.05
same,glycan array binding signal (z-score),[12],-0.837
same,glycan array binding signal (z-score),[13],0.402
same,glycan array binding signal (z-score),[14],-0.026
same,glycan array binding signal (z-score),[15],-1.04
same,glycan array binding signal (z-score),[16],-0.541
same,glycan array binding signal (z-score),[17],-0.477
same,glycan array binding signal (z-score),[18],0.371
same,glycan array binding signal (z-score),[19],0.645
same,glycan array binding signal (z-score),[20],-1.2
same,glycan array binding signal (z-score),[21],0.073
same,glycan array binding signal (z-score),[22],0.922

# Four neighbouring records out of the list so far, for reference:
binder,measurement,setting,value
B1,glycan array binding signal (z-score),[17],-0.477
same,glycan array binding signal (z-score),[18],0.371
same,glycan array binding signal (z-score),[19],0.645
same,glycan array binding signal (z-score),[20],-1.2
